US20080249024A1, “Peptides facilitating or inhibiting a nterograde transport” (priority 2006, published 2008)
No constants are given. Whether binding was seen depends on the method and setting. In cells and extracts the contact can be indirect. Some entries that bind do so weakly or less than the wild type.

The chains behind the UniProt entries cited, without tags or fusion partners. Residues count along the entry.
UniProt Q2PQA9, residues 2-963: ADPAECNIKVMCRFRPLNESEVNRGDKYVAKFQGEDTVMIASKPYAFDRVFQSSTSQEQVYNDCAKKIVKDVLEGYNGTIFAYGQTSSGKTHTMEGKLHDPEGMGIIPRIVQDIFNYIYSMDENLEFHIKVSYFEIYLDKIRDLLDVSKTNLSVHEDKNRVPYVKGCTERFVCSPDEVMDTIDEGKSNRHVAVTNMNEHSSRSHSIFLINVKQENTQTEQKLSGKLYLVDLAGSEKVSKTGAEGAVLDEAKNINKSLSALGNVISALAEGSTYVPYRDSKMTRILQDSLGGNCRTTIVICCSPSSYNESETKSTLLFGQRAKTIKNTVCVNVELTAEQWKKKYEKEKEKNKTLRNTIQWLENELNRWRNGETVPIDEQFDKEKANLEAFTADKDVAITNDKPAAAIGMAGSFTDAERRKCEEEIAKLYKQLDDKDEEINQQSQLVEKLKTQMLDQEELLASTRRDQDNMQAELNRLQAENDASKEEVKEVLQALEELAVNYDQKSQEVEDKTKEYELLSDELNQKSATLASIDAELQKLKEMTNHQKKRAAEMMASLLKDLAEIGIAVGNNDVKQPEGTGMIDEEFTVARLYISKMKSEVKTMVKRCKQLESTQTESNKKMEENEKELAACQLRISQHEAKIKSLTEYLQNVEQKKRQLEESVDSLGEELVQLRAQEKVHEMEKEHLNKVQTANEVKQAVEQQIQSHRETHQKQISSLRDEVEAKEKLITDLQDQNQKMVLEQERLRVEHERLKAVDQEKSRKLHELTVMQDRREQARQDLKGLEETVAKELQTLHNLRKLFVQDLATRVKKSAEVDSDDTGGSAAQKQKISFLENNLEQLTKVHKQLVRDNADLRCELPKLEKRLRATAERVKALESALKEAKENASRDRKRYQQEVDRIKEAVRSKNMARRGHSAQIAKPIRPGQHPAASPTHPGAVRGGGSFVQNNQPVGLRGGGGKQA

Tests used:
[1] = target: kinesin 1 heavy chain (from rat brain extract) (rat) (UniProt Q2PQA9); assay: peptide-bead pull-down from rat brain extract, Western blot
[2] = target: kinesin 1 heavy chain (from rat brain extract) (rat) (UniProt Q2PQA9); assay: peptide-bead pull-down from rat brain extract, Western blot (figure legend)

binding [1]: binds
binding [2]: binds
Binder: GYENPTYKFFEQMQN
